Record: PubChem BioAssay AID1259424 (University of Nebraska Medical Center, 2018)
In all, the deposit lists about 14,000 reagents; below is an unselected part. 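Higher correlation or smaller distance means closer resemblance to KSR1 loss; control wells, including KSR1 knockdowns, recur on many plates.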 Further read-outs or replicates are left out here. Not given: the time to read-out.

Screen: 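Seek colon cancer survival genes behaving like KSR1, using a six-gene signature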 (primary screen)
Cells: human HCT116 colon cancer cells
Knock-down reagent: siRNA pool against human genes, 50 nM
Measured: 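Six signature mRNAs by branched-DNA multiplex assay, scaled to two housekeeping genes and non-targeting median, log2; matched to mean KSR1 knockdown profile by Pearson correlation and euclidean distance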
Direction: mean correlation with KSR1 profile: higher = expression change more like KSR1 knockdown

The first 4 records, ahead of the listing:
target | mean correlation with KSR1 profile
PRNP (prion protein (Kanno blood group)) | 0.631
RXYLT1 (ribitol xylosyltransferase 1) | 0.0649
TSPAN6 (tetraspanin 6) | 0.0468
GABARAP (GABA type A receptor-associated protein) | 0.791

The list itself, from the first entry:
target | mean correlation with KSR1 profile
PRNP (prion protein (Kanno blood group)) | 0.631
RXYLT1 (ribitol xylosyltransferase 1) | 0.0649
TSPAN6 (tetraspanin 6) | 0.0468
GABARAP (GABA type A receptor-associated protein) | 0.791
ABO | -0.0528
PIGA (phosphatidylinositol glycan anchor biosynthesis class A) | 0.202
MRPS14 (mitochondrial ribosomal protein S14) | -0.407
CHKB (choline kinase beta) | -0.364
ROM1 (retinal outer segment membrane protein 1) | 0.66
SIK2 (salt inducible kinase 2) | -0.0458
LGALS3BP (galectin 3 binding protein) | 0.739
SMIM11 (small integral membrane protein 11) | 0.678
AGPAT2 (1-acylglycerol-3-phosphate O-acyltransferase 2) | 0.423
TSC22D1 (TSC22 domain family member 1) | 0.692
PDXDC1 (pyridoxal dependent decarboxylase domain containing 1) | -0.662
MALL (mal, T cell differentiation protein like) | 0.0948
FAHD2A (fumarylacetoacetate hydrolase domain containing 2A) | 0.0862
RASSF4 (Ras association domain family member 4) | 0.486
LILRB3 (leukocyte immunoglobulin like receptor B3) | -0.452
SEPTIN11 (septin 11) | -0.0945
EMILIN2 (elastin microfibril interfacer 2) | 0.415
OR52A1 (olfactory receptor family 52 subfamily A member 1) | 0.898
HAVCR2 (hepatitis A virus cellular receptor 2) | -0.143
CES1 (carboxylesterase 1) | 0.402
PRKRA | -0.199
C14orf132 (chromosome 14 open reading frame 132) | -0.904
FGF3 (fibroblast growth factor 3) | -0.232
CRLF1 (cytokine receptor like factor 1) | -0.397
CXCR4 (C-X-C motif chemokine receptor 4) | 0.637
FBXW8 (F-box and WD repeat domain containing 8) | -0.753
EPPIN (epididymal peptidase inhibitor) | -0.536
CTRB1 (chymotrypsinogen B1) | 0.59
MMRN2 (multimerin 2) | 0.702
AIRE (autoimmune regulator) | -0.0135
